Source: PubChem BioAssay AID504444 (National Center for Advancing Translational Sciences (NCATS), 2011)
Among all 360,000 compounds or so, about 7,500 (2.1%) were called active. Inconclusive means that the source gave no clear call. Such entries were picked first, then a sample of the others. The call rests on the fitted dose curve; in most records, active means well fitted inhibition curve with a large enough effect; inconclusive means small, poorly fitted or top-dose-only effect, or effect the other way; inactive means flat fitted curve, though single readings scatter. Potencies of inconclusive entries are doubtful fits and often do not repeat.

assay: Nrf2 qHTS screen for inhibitors; settings: A549 ARE-Fluc reporter, luciferase luminescence, 18-24 h; series mostly up to 46 µM; further: nearly all actives have a fitted effect of over 60% in size
Method in brief: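 A549 ARE_Fluc cells, 5000/well, 5% FBS OPTI-MEM; compounds in dose-response, 18-24 h at 37 °C/5% CO2; CellTiter-Fluor viability read (Ex 405/Em 525), then BugLite luciferase luminescence = Nrf2 activity.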
Potency means the concentration at half of the fitted maximal effect.

| SMILES | Potency |
| --- | --- |
| CC(C)CCSc1cc(NCCO)c([N+](=O)[O-])c2nonc12 | inactive |
| O=C(Nc1ccc(N2CCN(Cc3ccccc3F)CC2)cc1)c1ccc([N+](=O)[O-])o1 | active: 23.1 µM |
| CC(CCc1ccccc1)NC(=O)C1CCCN(C(=O)c2cc3sccc3n2C)C1 (centres undefined) | inconclusive: 29.1 µM [falling, single point] |
| Cc1ccc(CNC(=O)c2ccc(Cn3nc(C)c(Cl)c3C)o2)cc1 | inactive |
| Cc1ccc(-n2ncc3c(N4CCCC(C)C4)ncnc32)c(C)c1 (centres undefined) | inconclusive: 2.06 µM [activator, full curve] |
| Cc1ccc([N+](=O)[O-])c2c1C(N1CC(C)OC(C)C1)C(C)(C)O2 (centres undefined) | inconclusive: 16.4 µM [activator, single point] |
| Cc1ccc(S(=O)(=O)Nc2ccc(Cl)cc2C(=O)c2ccc(F)cc2)cc1 | inconclusive: 23.1 µM [falling, partial curve, poor fit] |
| Cc1ccc(-c2nnc(N3CCN(C(=O)CSc4ncn[nH]4)CC3)c3ccccc23)cc1 | inconclusive: 32.6 µM [falling, single point] |
| Cc1cnc(C(=O)OCC(=O)Nc2cccc(Cl)c2)cn1 | inconclusive: 20.6 µM [activator, partial curve] |
| CN(C)C(=S)SCC(=O)NCc1ccc(F)cc1 | inconclusive: 20.6 µM [activator, single point] |
| Cc1cc(CNC(=O)COc2cc(F)ccc2[N+](=O)[O-])c2ccccc2n1 | inconclusive: 25.9 µM [falling, partial curve, poor fit] |
| COCCn1c(=NC(=O)C(C)(C)C)sc2cc([N+](=O)[O-])ccc21 | inconclusive: 20.6 µM [activator, single point] |
| Cc1nc2c(C(=O)NCCC3=CCCCC3)c[nH]n2c(=O)c1Cl | inactive |
| COc1cccc(/C=C2\Oc3ccc(O)cc3C2=O)c1O | inactive |
| Oc1ccc2c(c1)oc1cc(O)ccc12 | inconclusive: 11.6 µM [activator, partial curve, poor fit] |
| CC1(C)CC(N2CCN(Cc3ccccc3)CC2)=CC(=[N+]2CCCCC2)C1 | active: 18.4 µM |
| CCc1ccc(NC(=O)C(=S)NC2CCCCC2)cc1 | inconclusive: 9.2 µM [activator, partial curve] |
| CCC[C@@H](CNC)NC[C@H](Cc1ccccc1)NCCCCc1ccccc1 | inactive |
| CCOC(=O)c1c(NC(=O)C(Sc2ccccc2)c2ccccc2)sc(C(=O)N(C)C)c1C (centres undefined) | inconclusive: 18.4 µM [falling, single point] |
| CCN(CC(=O)NCc1ccc(Cl)cc1)C(=O)CSc1ccc(Br)cc1 | inconclusive: 29.1 µM [falling, single point] |
| CCC(=O)NC1=C(Nc2ccc(N)cc2)C(=O)c2ccccc2C1=O | inconclusive: 4.61 µM [activator, full curve] |
| O=S(=O)(Nc1nc2ccccc2nc1Nc1ccc2c(c1)OCCO2)c1cccs1 | inconclusive: 25.9 µM [falling, partial curve, poor fit] |
| COc1ccc2c(C(=O)NCc3ccc4c(c3)OCO4)c(-c3ccc(S(C)(=O)=O)cc3)sc2c1 | active: 7.31 µM |

| SMILES | Potency |
| --- | --- |
| O=C1OC(NC(=O)c2ccccc2)C(n2cc(CO)nn2)=C1Cl (centres undefined) | inactive |
| CCOC(=O)C1(CCOc2ccccc2)CCN(C(=O)c2ccc(-n3cccn3)cc2)CC1 | inconclusive: 18.4 µM [falling, single point] |
| O=C(NC(=S)Nc1cccnc1)c1ccccc1 | inconclusive: 10.3 µM [activator, partial curve] |
| O=S(=O)(c1ccccc1)N1CCN(S(=O)(=O)c2ccc3c(c2)OCCO3)CC1 | inactive |
| Cc1ccc(/C=N/Nc2cccc(C(=O)O)c2)s1 | inconclusive: 14.6 µM [activator, partial curve] |
| Cc1cccc(C(=O)Nc2cccc(-c3ccc4nncn4n3)c2)c1 | active: 11.6 µM |
| COc1ccc(NC(=O)c2ccc3c(c2)OCO3)cc1Cl | inconclusive: 1.78 µM [activator, partial curve] |
| COc1cc2c(cc1NC(=O)CSc1nc3ccccc3[nH]1)oc1ccccc12 | active: 18.4 µM |
| COC(=O)c1ccccc1NC(=O)CN(CCc1ccccc1)S(C)(=O)=O | inconclusive: 0.0366 µM [falling, full curve] |
| O=C(CC(Nc1ccc(Cl)cc1)C(=O)O)c1ccccc1 (centres undefined) | inconclusive: 10.3 µM [activator, partial curve] |
| CCOc1cc(NS(=O)(=O)c2ccc(OC)cc2)c(OCC)cc1NC(=O)c1ccco1 | inconclusive: 23.1 µM [falling, single point] |
| CC(C)CN1CCC(=O)N(CCOc2ccccc2)CC1 | inconclusive: 25.9 µM [activator, single point] |
| COC(=O)c1ccccc1NC(=O)NC1CCN(Cc2ccccc2)CC1 | inactive |
| CCCS(=O)(=O)N1CC(=O)N(c2ccc(Cl)cc2C)C(C)(C(=O)NC2CCCC2)C1 (centres undefined) | inconclusive: 18.4 µM [activator, partial curve, poor fit] |
| Cc1ccc(SCC(=O)NC2CCS(=O)(=O)C2)cc1 (centres undefined) | inactive |
| O=S(=O)(Cc1ccccc1)NCCc1cccc(Cl)c1 | inactive |
| O=C(CSc1ccccc1)NCC1(N2CCCCC2)CCCCC1 | inactive |
| O=C(O)c1ccc(Nc2nc3c(s2)CCCC3)cc1 | inconclusive: 0.259 µM [activator, full curve, poor fit] |
| COc1ccc(-c2nc3ccccc3c(=O)n2CCOc2cccc(C)c2C)cc1 | inactive |
| COc1cc(-c2cc(C(=O)NCCc3ccc(S(N)(=O)=O)cc3)c3ccccc3n2)cc(OC)c1OC | inactive |
| Oc1ccc(N2CCN(C(c3cccnc3)c3nnnn3Cc3ccccc3)CC2)cc1 (centres undefined) | inconclusive: 11.6 µM [falling, partial curve] |
| Cc1ccccc1NC(=O)Cn1nnc2c(cnn2-c2ccc(F)cc2)c1=O | inconclusive: 1.03 µM [falling, full curve, poor fit] |
| O=C(NCc1ccc2c(c1)OCO2)c1cc2ccccc2o1 | inconclusive: 0.116 µM [falling, full curve, poor fit] |

| SMILES | Potency |
| --- | --- |
| Cc1ccc(NC(=O)NCCCN2CCCC2=O)cc1Cl | inconclusive: 16.4 µM [activator, single point] |
| CN(C)CCNC(=O)c1cccc2nc3cccc(F)c3nc12 | active: 4.61 µM |
| CCOC(=O)CCNC(=O)c1ccc2nc(C3CCCCC3)oc2c1 | inconclusive: 29.1 µM [activator, partial curve, poor fit] |
| CN(C)c1ccc(N2CN=C3SCC(=O)N3C2)cc1 | inconclusive: 13 µM [activator, partial curve] |
| COc1ccc(NC(=O)CNc2cccc(S(=O)(=O)N3CCCCCC3)c2)c([N+](=O)[O-])c1 | inconclusive: 20.6 µM [falling, single point] |
| COc1ccc(CN(C(=O)CSc2nnc(-c3ccc(OC)c(OC)c3)o2)c2ccc(F)cc2)cc1 | inconclusive: 13 µM [falling, partial curve, poor fit] |
| COc1ccc(Br)cc1CN1CCC(N2CCCC2)CC1 | inconclusive: 32.6 µM [activator, single point] |
| CCCCCN(C(=O)CCC(=O)OCc1cccc(C(F)(F)F)c1)c1c(N)n(CCCC)c(=O)[nH]c1=O | inconclusive: 0.82 µM [falling, full curve, poor fit] |
| COc1cc2ccccc2cc1C(=O)Nc1ccc(Cc2ccncc2)cc1 | inconclusive: 32.6 µM [falling, single point] |
| CCOc1cc([N+](=O)[O-])cc2c1C(=O)Nc1ccccc1O2 | inconclusive: 16.4 µM [falling, partial curve] |
| CCOC(=O)C1CCN(C(=O)c2ccc(-n3ccc4ccccc43)s2)CC1 | inconclusive: 6.51 µM [falling, single point] |
| COc1ccc(Cn2ccn(Cc3cccc(OC)c3)c(=O)c2=O)cc1 | inconclusive: 29.1 µM [falling, single point] |
| Cc1cccc(C(=O)NCCc2ccccc2)c1 | inconclusive: 0.82 µM [activator, full curve] |
| CC(=O)NCCCNC(=S)NCCCN(Cc1ccc(Cl)cc1)c1ccc(Br)cn1 | inconclusive: 6.51 µM [activator, single point] |
| CCCCNC(=O)C(CC)n1c(SCc2cccc(F)c2)nc2ccncc21 (centres undefined) | inconclusive: 16.4 µM [falling, single point] |
| CC(C)OCCCNC1=C(Cl)C(=O)c2ccccc2C1=O | inconclusive: 29.1 µM [falling, single point] |
| Cc1ccccc1C1CC(=O)Nc2ccc3ccccc3c21 (centres undefined) | inactive |
| Cc1ccc(C(=O)c2cn(CC(=O)Nc3ccc(C)cc3Cl)c3nc(C)ccc3c2=O)cc1 | inactive |
| Cc1cccc(NC(=O)N2CC(=O)Nc3sc4c(c3C2c2ccccc2)CCCC4)c1C (centres undefined) | inconclusive: 20.6 µM [falling, partial curve] |
| Cc1cccc(NC(=S)NNC(=O)c2sccc2C)c1 | inconclusive: 1.64 µM [activator, full curve, poor fit] |
| O=C(CSc1ccc(-c2ccccn2)nn1)N1CCCC1 | inconclusive: 29.1 µM [activator, single point] |
| CCOC(=O)c1cc2c(=O)n3ccccc3nc2n(Cc2ccco2)c1=NC(=O)c1cccc(OC)c1 | inconclusive: 1.3 µM [falling, full curve] |
| CCN1C(=O)c2ccccc2S(=O)c2ccc(C(=O)N3CCN(c4cc(Cl)ccc4C)CC3)cc21 (centres undefined) | inconclusive: 10.3 µM [falling, partial curve] |
